Test results from PubChem BioAssay AID2685 (National Center for Advancing Translational Sciences (NCATS), 2010).
This is one part of the list. These are further read-outs of the screen, such as a control signal, another cell line or another target. No call is given for them. Most of these compounds were active or inconclusive in the main read-out, so they are no random draw. Potencies come from curve fits of mixed quality, noted in brackets.

Assay: qHTS Assay for Lipid Storage Modulators in Drosophila S3 Cells;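 for cell number change: cells counted by Cell Tracker Red CMTPX staining in the red channel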
Settings: BODIPY lipid droplet fluorescence, 18-24 h; for cell number change: measured here: cell count max response, cells fed with added oleic acid
In short: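 Laser-scanning cytometry quantifies lipid droplet accumulation (500–530 nm total intensity; droplet/cell object ratio) in oleic acid-fed (400 uM added) Drosophila S3 cells treated with a concentration series. 20 uM Triacsin C defined 100% inhibition.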

[1] = measured here: lipid fluorescence (Fed channel) AC50, cells fed with added oleic acid
[2] = measured here: cell number channel AC50, cells fed with added oleic acid

SMILES	cell number change [%]	AC50 [1]	AC50 [2]
Cc1cccc(NC(=O)c2ccc(S(=O)(=O)C(F)F)cc2)c1C	11.2	2.91 µM [rising, partial curve, poor fit]	–
COc1ccc(C(=O)Nc2sc3c(c2C(=O)NCc2ccco2)CCCC3)cc1OC	6.74	4.61 µM [rising, full curve]	–
Cc1cccc(N(CC(=O)Nc2ccccc2F)S(C)(=O)=O)c1	–	5.8 µM [falling, single point]	–
Cc1cc(C)cc(NC(=O)CSc2nc(N)c(NC(=O)c3ccc(Br)o3)c(=O)[nH]2)c1	24.4	0.58 µM [rising, single point]	–
COc1ccc(NC(=O)CSc2c(C)nn(-c3nnc(C)c(=O)[nH]3)c2C)cc1	-98.7	32.6 µM [falling, partial curve]	32.6 µM [falling, partial curve]
O=C(Nc1ccc(Cl)cc1F)C1CCCN(C2=NS(=O)(=O)c3ccccc32)C1 (configuration not stated)	–	18.4 µM [falling, single point]	–
COc1cc(/C=N/n2cnnc2)ccc1OC(=O)c1ccco1	-26.9	32.6 µM [falling, partial curve]	–
COc1ccc(Nc2nc3ccccc3s2)cc1	-17.1	0.116 µM [falling, full curve, poor fit]	–
CC(c1ccco1)N(C(=O)c1ccccc1F)c1ccccn1 (configuration not stated)	-105	32.6 µM [falling, partial curve, poor fit]	29.1 µM [falling, single point]
CC1CCC(NC(=O)c2cccc(S(=O)(=O)N3CCN(c4ccccc4)CC3)c2)CC1 (configuration not stated)	-10.4	–	2.59 µM [rising, single point]
COc1ccc(OCCC(=O)OCC(=O)NCc2ccc(F)cc2)cc1	-53.4	0.366 µM [falling, partial curve]	23.1 µM [falling, single point]
Cc1ccc(C(=O)NCC(c2ccco2)N2CCc3ccccc32)cc1 (configuration not stated)	16.2	2.91 µM [rising, single point]	–
CN1CCc2nc(NC(=O)c3cccc(OC(F)F)c3)sc2C1	13.9	16.4 µM [falling, partial curve]	–
C=CCNC(=S)Nc1sc2c(c1C(=O)OCC)CC(C)(CC)OC2 (configuration not stated)	-14	1.64 µM [falling, partial curve]	–
CCn1cc(C(=O)NC(C)C2CC3CCC2C3)cn1 (configuration not stated)	-15.8	6.51 µM [rising, partial curve]	–
O=C1C2C3C=CC(C3)C2C(=O)N1c1cccc(N2C(=O)C3C4C=CC(C4)C3C2=O)n1 (configuration not stated)	-231	18.4 µM [falling, partial curve]	29.1 µM [falling, partial curve]
O=C(Cc1ccc(F)cc1)N1CCC(CC2CC(c3cccc(Br)c3)=NO2)(C(=O)NCC2CCCCC2)CC1 (configuration not stated)	31.1	29.1 µM [falling, single point]	5.8 µM [rising, full curve, poor fit]
CC(C)CC(COCc1cccc(C(F)(F)F)c1)N1CCN(C(=O)c2cccc(C(F)(F)F)c2)CCC1=O (configuration not stated)	1.83	16.4 µM [falling, single point]	–
CC(NC(=O)C(=O)N/N=C/c1ccccc1)c1ccccc1 (configuration not stated)	-26.7	20.6 µM [falling, partial curve]	–
CC(C)Nc1nc(-c2ccccc2)nc(-n2ccnc2)n1	-46.6	–	29.1 µM [falling, single point]

SMILES	cell number change [%]	AC50 [1]	AC50 [2]
Cc1nc2ccccc2c2oc(C(=O)N3CCCC(C)C3)cc12 (configuration not stated)	-18.2	–	–
Cc1cc(C)nc(NS(=O)(=O)c2ccc(NC(=O)CCCN3C(=O)c4ccccc4C3=O)cc2)n1	-12.2	–	–
CCCSC1=N/C(=C\c2ccc3c(c2)OCO3)C(=O)S1	18.7	–	–
Cc1ccc(CNC(=O)C2(S(=O)(=O)c3ccccc3)CC=CC2)cc1	11.7	–	–
Cc1ccccc1Cn1nc(C)c(NC(=O)C2(C)CC2(Cl)Cl)c1C (configuration not stated)	-35	20.6 µM [falling, partial curve, poor fit]	25.9 µM [falling, partial curve, poor fit]
Cc1cccc(N=C2NC(=O)/C(=C\c3cccs3)S2)c1	21.4	14.6 µM [rising, single point]	–
COc1ccccc1/C=C1\N=C(C(C)(C)C)OC1=O	20.3	–	–
Cc1cc(Cl)ccc1NC(=O)C1CCCN1C(=O)c1cccs1 (configuration not stated)	-17.2	0.517 µM [falling, partial curve, poor fit]	–
O=C(Nc1cnn(Cc2ccc(Cl)cc2)c1)c1ccc([N+](=O)[O-])cc1	2.28	–	–
COc1ccc(NC(=S)NCCCCCC(=O)C[N+](=O)[O-])cc1	-37.1	0.731 µM [falling, full curve]	13 µM [falling, partial curve]
Cc1cc(C)n2nc(C(=O)NCc3cccc(C(F)(F)F)c3)nc2n1	32.7	29.1 µM [rising, single point]	29.1 µM [rising, single point]
Cc1ccc(NC(=O)CSc2nnc(C3CC3)n2C)cc1S(=O)(=O)N1CCCCC1	-4.15	6.51 µM [falling, single point]	–
COc1ccc(NC(=O)Cc2nnc(SCC(=O)NC3CCCC3)n2C)cc1	-7.89	–	–
CC(=O)N1c2ccc(S(=O)(=O)N3CCC(C(=O)N4CCN(c5ccccc5F)CC4)CC3)cc2CC1C (configuration not stated)	-16.5	–	1.3 µM [rising, full curve, poor fit]
CCC(=O)Nc1cccc(-c2cn3ccsc3n2)c1	49.6	14.6 µM [rising, partial curve]	–
COc1cc(NC(=O)c2ccccc2)c(OC)cc1NC(=O)Cc1ccc(Br)cc1	110	29.1 µM [falling, single point]	20.6 µM [rising, partial curve]
O=C(COC(=O)CN1C(=O)NC2(CCCC2)C1=O)Nc1ccccc1C(F)(F)F	-12	–	0.517 µM [falling, single point]
CN(C)S(=O)(=O)n1cnc([C@@H]2[C@@H]3C(=O)OC[C@@H]3C[C@]23N=CN(Cc2ccccc2)C3=O)c1	10.7	0.517 µM [rising, full curve, poor fit]	–
CCn1c(C)nc2cc(C(=O)NNS(=O)(=O)c3ccc(C)cc3C)ccc21	21.6	6.51 µM [rising, partial curve]	–
O=C(COC(=O)CCc1nc2ccccc2s1)Nc1ncc(Cl)cc1Cl	13.3	14.6 µM [rising, single point]	–

An excerpt from above, reduced to cell number change [%]:
SMILES	cell number change [%]
COc1ccc(NC(=S)NCCCCCC(=O)C[N+](=O)[O-])cc1	-37.1
Cc1cc(C)n2nc(C(=O)NCc3cccc(C(F)(F)F)c3)nc2n1	32.7

Next part

SMILES	cell number change [%]	AC50 [1]	AC50 [2]
O=C(NCCN1CCCC1)C1COc2ccccc2O1 (configuration not stated)	-25.3	–	0.0651 µM [falling, full curve, poor fit]
N=c1c2c(-c3ccccc3)c(-c3ccccc3)n(Cc3ccccc3)c2ncn1CCCO	-28.7	–	–
Cc1nc2nc[nH]n2c(=O)c1NC(=O)CCc1ccccc1	-42.3	0.0517 µM [falling, full curve, poor fit]	20.6 µM [falling, partial curve, poor fit]
COc1ccc(C(CCNCc2ccccc2F)c2ccc(F)cc2)cc1 (configuration not stated)	-32	7.31 µM [falling, partial curve, poor fit]	18.4 µM [falling, partial curve]
CN(c1ccccc1)S(=O)(=O)c1ccc(Cl)nc1	-12.4	0.206 µM [falling, full curve, poor fit]	0.731 µM [falling, full curve, poor fit]
O=C(CCC(=O)c1cccs1)Nc1ncccc1O	25	–	2.06 µM [falling, partial curve, poor fit]
Cc1csc2nnc(N)n12	-0.14	0.146 µM [falling, full curve, poor fit]	–
O=C(CN1CCc2ccccc21)Nc1ccc2c(c1)OCO2	7.69	1.84 µM [rising, partial curve]	–
Cc1cccc(NC(=O)CS(=O)CC(=O)Nc2cnc3ccccc3c2)c1C (configuration not stated)	13.3	1.16 µM [rising, full curve]	–
Cc1ccnc2nc(C(=O)OCC(=O)c3c[nH]c4ccccc34)nn12	37.8	–	32.6 µM [rising, partial curve, poor fit]
CCSc1nc2cc(OC)c(OC)cc2c(=O)n1CCc1ccccc1	100	3.26 µM [rising, partial curve]	1.84 µM [rising, full curve]
Nc1cccc(/C=C/c2ccncc2)c1	5.71	0.092 µM [rising, full curve, poor fit]	–
Cn1c(=O)[nH]c(=O)c2c1nc(CN1CCN(c3cccc(Cl)c3)CC1)n2Cc1ccccc1Cl	–	3.26 µM [rising, partial curve]	–
Cn1nc(C(=O)NNC(=O)c2ccc(Cl)c(S(N)(=O)=O)c2)c2ccccc2c1=O	-17.3	4.61 µM [rising, full curve, poor fit]	–
CC(C)CCNC(=O)COc1ccc2c3c(c(=O)oc2c1)CCC3	-9.98	0.206 µM [rising, full curve, poor fit]	–
O=C(O)COc1ccc(C(=O)Cc2ccc3c(c2)OCCCO3)c(O)c1	-8.7	18.4 µM [rising, single point]	–
O=C(Nc1ncc([N+](=O)[O-])s1)c1ccc2c(c1)OCO2	6.52	–	–
Cc1nc(SCc2cccc(Oc3ccccc3)c2)n[nH]1	-3.32	4.61 µM [falling, single point]	–
